Assay results taken from PMC12095580, “Wnt signalosome assembly is governed by conformational flexibility of Axin and by the AP2 clathrin adaptor” (Nature Communications, 2025).
No constants are given. Whether binding was seen depends on the method and setting. Binding can be weak; no strength is given. For part of these data: Binding seen in cells or lysates may run through a third protein.

Amino acid sequences for entries named in this document (tags omitted). A change or cut given only in a name is not applied to a line headed by its entry.
UniProt O75581: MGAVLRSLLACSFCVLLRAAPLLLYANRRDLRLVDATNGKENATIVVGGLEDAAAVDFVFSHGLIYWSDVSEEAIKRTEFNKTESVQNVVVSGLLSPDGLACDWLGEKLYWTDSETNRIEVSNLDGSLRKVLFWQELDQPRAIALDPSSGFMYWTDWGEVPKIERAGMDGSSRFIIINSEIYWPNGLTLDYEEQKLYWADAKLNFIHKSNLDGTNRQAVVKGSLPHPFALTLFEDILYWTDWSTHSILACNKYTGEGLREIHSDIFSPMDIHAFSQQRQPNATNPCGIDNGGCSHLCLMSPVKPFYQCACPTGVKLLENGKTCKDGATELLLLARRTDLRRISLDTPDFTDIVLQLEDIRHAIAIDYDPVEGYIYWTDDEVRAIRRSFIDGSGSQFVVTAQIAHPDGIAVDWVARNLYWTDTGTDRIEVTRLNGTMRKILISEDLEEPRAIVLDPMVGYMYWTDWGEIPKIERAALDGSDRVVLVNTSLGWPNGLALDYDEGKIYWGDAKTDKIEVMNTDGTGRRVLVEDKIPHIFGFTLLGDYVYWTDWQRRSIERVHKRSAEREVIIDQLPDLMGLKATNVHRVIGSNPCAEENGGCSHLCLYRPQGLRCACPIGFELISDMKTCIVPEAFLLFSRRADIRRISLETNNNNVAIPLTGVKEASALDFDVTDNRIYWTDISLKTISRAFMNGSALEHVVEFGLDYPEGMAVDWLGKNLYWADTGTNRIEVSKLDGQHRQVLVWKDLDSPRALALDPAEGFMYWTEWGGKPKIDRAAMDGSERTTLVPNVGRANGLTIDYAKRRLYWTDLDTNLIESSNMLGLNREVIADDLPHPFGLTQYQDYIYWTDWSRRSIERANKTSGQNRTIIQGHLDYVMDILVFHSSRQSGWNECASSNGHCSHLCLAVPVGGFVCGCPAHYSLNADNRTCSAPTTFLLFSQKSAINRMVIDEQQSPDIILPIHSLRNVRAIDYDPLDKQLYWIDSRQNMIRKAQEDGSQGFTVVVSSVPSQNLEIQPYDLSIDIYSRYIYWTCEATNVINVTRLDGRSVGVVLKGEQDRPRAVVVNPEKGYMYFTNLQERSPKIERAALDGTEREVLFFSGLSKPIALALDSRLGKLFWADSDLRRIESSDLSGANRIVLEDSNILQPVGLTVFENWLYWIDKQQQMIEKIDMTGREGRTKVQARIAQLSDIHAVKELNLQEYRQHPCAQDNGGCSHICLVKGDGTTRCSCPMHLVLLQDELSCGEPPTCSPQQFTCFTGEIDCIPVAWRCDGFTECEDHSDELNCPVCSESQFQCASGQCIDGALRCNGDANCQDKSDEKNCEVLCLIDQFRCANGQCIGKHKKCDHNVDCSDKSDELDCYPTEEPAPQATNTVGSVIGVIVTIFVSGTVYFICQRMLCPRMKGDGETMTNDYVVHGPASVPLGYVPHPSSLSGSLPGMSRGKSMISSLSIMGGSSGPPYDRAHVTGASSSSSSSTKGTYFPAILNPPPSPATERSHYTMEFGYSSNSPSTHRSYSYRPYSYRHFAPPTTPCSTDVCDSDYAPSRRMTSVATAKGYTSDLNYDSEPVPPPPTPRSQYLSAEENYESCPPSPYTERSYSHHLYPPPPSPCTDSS
UniProt O15169: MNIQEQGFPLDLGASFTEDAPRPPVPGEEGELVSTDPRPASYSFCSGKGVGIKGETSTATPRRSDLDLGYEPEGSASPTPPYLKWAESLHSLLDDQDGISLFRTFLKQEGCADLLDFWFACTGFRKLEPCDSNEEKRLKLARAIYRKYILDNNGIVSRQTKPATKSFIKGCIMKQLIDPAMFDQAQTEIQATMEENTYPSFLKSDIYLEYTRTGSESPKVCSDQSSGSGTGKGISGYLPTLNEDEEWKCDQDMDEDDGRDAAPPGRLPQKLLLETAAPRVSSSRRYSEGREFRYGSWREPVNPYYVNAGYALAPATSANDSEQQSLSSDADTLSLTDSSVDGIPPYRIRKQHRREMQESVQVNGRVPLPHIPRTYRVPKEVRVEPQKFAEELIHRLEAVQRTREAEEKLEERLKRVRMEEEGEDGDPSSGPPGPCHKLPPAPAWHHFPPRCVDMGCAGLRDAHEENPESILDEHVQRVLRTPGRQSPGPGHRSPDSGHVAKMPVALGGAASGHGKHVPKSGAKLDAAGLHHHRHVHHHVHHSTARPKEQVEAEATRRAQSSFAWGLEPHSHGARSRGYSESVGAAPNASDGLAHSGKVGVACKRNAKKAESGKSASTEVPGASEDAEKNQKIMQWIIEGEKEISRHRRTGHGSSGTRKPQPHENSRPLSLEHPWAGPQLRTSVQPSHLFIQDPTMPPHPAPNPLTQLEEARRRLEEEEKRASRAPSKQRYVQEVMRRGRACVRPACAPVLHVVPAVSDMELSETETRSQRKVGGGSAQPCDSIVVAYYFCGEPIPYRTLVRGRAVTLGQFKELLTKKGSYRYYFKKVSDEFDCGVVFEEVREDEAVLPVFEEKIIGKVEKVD

Columns and labels:
[1] = target: LRP6-GFP ΔB (UniProt O75581); assay: co-IP; wt or mutant LRP6-GFP co-expressed with FLAG-Axin and/or GSK3β-HA in LRP5/6 DKO cells (Fig. 8d, e; cells of Fig. 8f not stated); GFP-trap IP, Western blot
[2] = target: His6x-AP2μ (YxxΦ-binding domain of rat AP2μ) (rat); assay: crystal structure; AP2μ YxxΦ-binding domain (10 mg/ml) with 3x excess of synthetic peptide; sitting drop, 18 °C; both purified

Row | Molecule | binding [1] | binding [2]
1 | FLAG-Axin1 (from UniProt O15169 1-862) | binds | 
2 | SYRHFA [SYRHFA peptide (synthetic, co-crystallized)] |  | binds
3 | SYRPYS [SYRPYS peptide (synthetic, co-crystallized)] |  | binds
